{"source": "paper PMC5996148", "assay_in_all_cases": "protein microarray (ProtoArray v5.0), streptavidin-Alexa Fluor 647", "details_in_all_cases": "3'-biotin; 20 mM Tris (pH 7.5), 5 mM MgCl2, 100 mM KCl, 0.1% Tween-20, A/T-rich and random oligonucleotide blockers; temperature not stated; high values mean tight binding", "key": {"[1]": {"system": "GPR108 (human)"}, "[2]": {"system": "GPR15 (human)"}, "[3]": {"system": "GPR172B (human)"}, "[4]": {"system": "GPRC5C (human)"}, "[5]": {"system": "GPS2 (human)"}, "[6]": {"system": "GPSM3 (human)"}, "[7]": {"system": "GPT (human)"}, "[8]": {"system": "GPX1 (human)"}, "[9]": {"system": "GPX2 (human)"}, "[10]": {"system": "GPX7 (human)"}}, "note": "This is one part of the list.", "data": [{"sequence": "GGGAGGCTGAGGCAGG [G4-1 biotinylated (PQS2)]", "values": [{"measurement": "binding signal", "setting": "[1]", "value": -0.345, "unit": "z-score"}, {"measurement": "binding signal", "setting": "[2]", "value": -0.313, "unit": "z-score"}, {"measurement": "binding signal", "setting": "[3]", "value": -0.319, "unit": "z-score"}, {"measurement": "binding signal", "setting": "[4]", "value": -0.328, "unit": "z-score"}, {"measurement": "binding signal", "setting": "[5]", "value": -0.321, "unit": "z-score"}, {"measurement": "binding signal", "setting": "[6]", "value": -0.334, "unit": "z-score"}, {"measurement": "binding signal", "setting": "[7]", "value": -0.314, "unit": "z-score"}, {"measurement": "binding signal", "setting": "[8]", "value": -0.338, "unit": "z-score"}, {"measurement": "binding signal", "setting": "[9]", "value": -0.294, "unit": "z-score"}, {"measurement": "binding signal", "setting": "[10]", "value": -0.31, "unit": "z-score"}]}]}
